Among all 53,000 sequences or so, about 3,700 (7%) were called active.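 Rule for the calls: active = gene knockdowns whose robust z-score for IL-1 alpha signal is at least 2 or at most -2, so actives lie on both sides; inactive = the rest.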 Some of the results follow.
assay: Components of the Cytosolic LPS Sensing Pathway: Gene Identification via Genome-wide siRNA Screen; conditions: RAW264.7 macrophages, IL-1a HTRF, actives lie on both sides, screened at 100 nM (by protocol), cells primed 5 h with Pam3CSK4 first;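 note: robust z of the log signal after scaling to non-targeting control siRNA wells of the plate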
Outline: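 Using IL-1a HTRF as read-out, the screen measured release from RAW264.7 cells after 48h siRNA knockdown (100 nM), 5 h Pam3CSK4 priming and 24 h cytosolic LipidA. Values were expressed relative to negative-control wells as robust z-scores.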

Sequence	z-score
GGUCUUAUGGGAAAAUUAGTT against Lamc2	inactive: -0.000598
GGGAGCUGAACACAAACACTT against Trav3-3	inactive: 0.191
CGUAAGACGGAUGUACAUCTT against Smco1	inactive: 0.846
GGAAGUGGAACACAUGAUCTT against Zfp346	inactive: -0.449
CCAUCCAGUCCCUAAGAAATT against Zcwpw1	inactive: -0.256
GGAAGAAGACGGACUUCGGTT against Vapb	inactive: -1.3
GCCCUUACAUAAUAGCUUGTT against Tacr2	inactive: 1.56
GUCAUCAUGGGUCCUGAGATT against Vmn1r193	inactive: -0.754
GGACAAUUUUUCUUCUCCATT against Tsnax	inactive: -0.744
GGUUUGUGCGGACUUGAUCTT against Rps20	inactive: -0.143
GGCUAUGUGAAUGAAGGGATT against Fbxl14	inactive: 0.574
CCGACUCCCAUCUUGUGAATT against Acsf2	inactive: -0.588
CCUUAUUCCACCCAUUUUCTT against Gprc5a	inactive: -0.101
GGCUAGUGUCAGAAAACCCTT against Tfrc	inactive: -0.675
GGAAGAGUCAACAUAAUAGTT against Galk2	inactive: -1.97
GCUCUGUUCACCUACCCGATT against Anapc16	inactive: 0.264
GGGAUCGUAGAAGAUUAUATT against Pbdc1	inactive: -0.504
CCUUCUCUAGCUAUGGCUATT against Gabrg3	inactive: -0.198
GGGUUUUGACUUUCGUUUUTT against Etnk2	inactive: 0.65
UCACAGAAGGCUGUAUCCUTT against Olfr231	inactive: -0.942
GCUCAGAUAAUGGCCUACATT against Smarca4	active: 2.28
GAGUGUUUCAGAUUCUUCATT against Klra8	inactive: 0.329
CGACUACCAACAGUUCAUATT against P2rx6	inactive: 1.14

Sequence	z-score
GGACUUCUCCAUCCUGCUUTT against Alg1	inactive: -0.542
GCGGUCACGUGUGAUGGAUTT against Zfp653	active: 3.98
GGAAGAAGAAAAGAUUCUGTT against Ddx41	inactive: -0.0781
CCACAGCCAAAUGCACAAGTT against Platr26	inactive: 0.31
GGUUUAGGGUCAAGAUAUUTT against Ttf2	inactive: -1.39
GGAAAAAAGUCAAGAAAGUTT against Fstl5	inactive: -0.478
GGAAAGAGACAGAAGAAGCTT against Lrrc23	inactive: -0.396
GCGGGCUGUCGUUAUGAUGTT against Qrfpr	inactive: 0.0894
GUACAACUAGACAUUAUGCTT against H2bu1-ps	inactive: -1.21
GGUUUGUAUCUUAAAUGCCTT against Tdpoz4	active: 2.88
GGAAGAGAGGACCAUGAAGTT against Usp18	inactive: -1.14
GGCAUACCUGGAGAAGUGUTT against Prr5l	active: -2.31
GGAUGCAUAUGAAUUUGCUTT against Brdt	inactive: 0.969
GGGUGAAAAUGGCAUUGUUTT against Col1a2	inactive: 0.56
GGUCUAGUAGGAUUUCUAUTT against Nid1	inactive: 0.318
CGCGGAGGUCUCUCUUAUUTT against Prss39	active: 2.22
GCCCAUGUGGACUUCUAUGTT against Spr	inactive: -0.521
GGUAGGAUGAGUUGAAGAGTT against AF366264	inactive: 0.0631
GGUCAGUCUACUUUUCCACTT against Tas2r108	inactive: -0.587
GGGAGUGCUUUAGAAAAAATT against Acnat2	inactive: -0.0203
GCAAGAAACAGCAUUGUCCTT against Plch2	inactive: -1.04
GCCAAGACCUAUGAGUAUATT against Naaladl1	inactive: 1.33
GGUCCUGUCUAAAGCUCAATT against Efna5	inactive: -0.799

Not a retest: an excerpt of the list.
Sequence	z-score
GGCAUACCUGGAGAAGUGUTT against Prr5l	active: -2.31
GGAUGCAUAUGAAUUUGCUTT against Brdt	inactive: 0.969
GGGUGAAAAUGGCAUUGUUTT against Col1a2	inactive: 0.56

Following part

Sequence	z-score
GCAGAUUGCUCAGAUUACCTT against Brip1	inactive: 0.407
CCUGUUGGCCAUUUCCUAGTT against Zdhhc21	inactive: 0.404
GGUUCAGACAACUCAGUGGTT against Pbx1	inactive: 0.813
GGGAUGGGACCAUCAAUCUTT against Cib1	inactive: -1.13
CCUGGCAGAGCAUUAUCUATT against Tmem201	inactive: 0.558
GGUGUCAGUCUCUAAACGATT against Hdgfl2	inactive: -0.0249
GGCCUAUAGACCUAAUUGUTT against Vmn1r70	inactive: -0.272
GGCCCUAUUAGAGAUAAAATT against Robo3	inactive: -1.2
GGAAACCAAACUGCUAUCUTT against Olfr1324	inactive: -0.321
GCCCGAAUUUGAUAAACAGTT against Gxylt2	inactive: 0.184
GGAGCUAGUUCUAAGCCCUTT against Nrm	inactive: 0.908
GGCUCUUUCGAUUUCGGCATT against Unc50	inactive: -0.0616
GCAAAUUAACAGAGUGUCCTT against Dnase1l2	inactive: -1.24
GGAAUGAACCAUAUGUAGCTT against Kcnq3	inactive: 0.14
CGAAGGCUUCCCUUUUAUCTT against Tmem150b	active: 2.67
GGGUCUUUCACUACGACAGTT against Vnn1	inactive: 0.207
GGAUGAACACUGUUACAAATT against Tusc3	inactive: 0.352
GCCUGACAUCAGUACCUUUTT against Pram1	inactive: -0.196
GGUCCGAUUUGAUCAGCGUTT against Smpd2	inactive: 0.358
GGACUUCAGCUCCAGGCUATT against Cdk5rap1	inactive: 0.71
CCAGCUACGACGUAACUGATT against Rpl3l	inactive: -1.12
AACUAUGUCUGCUAUGUCATT against Cela2a	inactive: 1.03

— PubChem BioAssay AID1508600 (Functional Genomics Laboratory (NCATS/FGL), 2020)
